Three substances from PMC6500071 can be followed below.

Amino acid sequences for entries named in this document (tags omitted).
UniProt Q96DH6: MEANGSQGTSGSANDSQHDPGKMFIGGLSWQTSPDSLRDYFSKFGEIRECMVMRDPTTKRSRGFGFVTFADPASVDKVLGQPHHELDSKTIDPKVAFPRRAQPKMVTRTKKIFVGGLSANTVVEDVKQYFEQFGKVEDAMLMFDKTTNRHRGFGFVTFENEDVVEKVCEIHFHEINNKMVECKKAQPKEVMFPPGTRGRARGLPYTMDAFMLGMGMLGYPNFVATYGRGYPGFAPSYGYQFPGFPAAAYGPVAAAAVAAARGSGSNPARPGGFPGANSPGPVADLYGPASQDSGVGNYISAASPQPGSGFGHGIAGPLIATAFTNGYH
UniProt Q14457: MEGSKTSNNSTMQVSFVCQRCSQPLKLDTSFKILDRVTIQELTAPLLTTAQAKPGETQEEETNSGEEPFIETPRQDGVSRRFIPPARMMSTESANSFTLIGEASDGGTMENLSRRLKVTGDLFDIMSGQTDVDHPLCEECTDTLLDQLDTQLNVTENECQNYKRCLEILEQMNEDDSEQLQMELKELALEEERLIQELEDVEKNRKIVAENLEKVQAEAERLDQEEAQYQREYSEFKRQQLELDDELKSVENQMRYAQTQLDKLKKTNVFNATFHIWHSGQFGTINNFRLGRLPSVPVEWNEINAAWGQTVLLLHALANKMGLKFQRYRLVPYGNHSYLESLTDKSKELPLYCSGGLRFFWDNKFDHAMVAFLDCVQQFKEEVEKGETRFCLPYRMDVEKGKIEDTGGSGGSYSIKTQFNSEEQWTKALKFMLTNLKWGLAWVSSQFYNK
UniProt Q13547: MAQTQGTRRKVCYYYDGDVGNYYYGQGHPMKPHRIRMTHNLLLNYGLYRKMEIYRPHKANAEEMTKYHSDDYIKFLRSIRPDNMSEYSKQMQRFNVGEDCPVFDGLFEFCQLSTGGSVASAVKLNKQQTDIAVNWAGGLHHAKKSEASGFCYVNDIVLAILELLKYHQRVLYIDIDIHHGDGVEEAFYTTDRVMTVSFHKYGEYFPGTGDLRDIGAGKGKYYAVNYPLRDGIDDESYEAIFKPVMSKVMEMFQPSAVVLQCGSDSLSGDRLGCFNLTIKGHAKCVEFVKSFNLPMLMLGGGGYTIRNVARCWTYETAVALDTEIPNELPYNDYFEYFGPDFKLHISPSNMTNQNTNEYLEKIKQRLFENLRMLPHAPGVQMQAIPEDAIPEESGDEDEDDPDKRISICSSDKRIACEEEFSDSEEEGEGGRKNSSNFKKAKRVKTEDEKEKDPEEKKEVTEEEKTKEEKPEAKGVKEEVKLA

For assay [1], the target named is Musashi-2 (MSI2) (human (endogenous in NF1 MPNST cells)) (UniProt Q96DH6). The experiment in a line: co-IP; lysates of NF1 MPNST cells; antibody (anti-MSI2 or anti-Beclin1) at 4 °C overnight, protein A/G agarose 1.5 h, three washes with lysis solution, elution in SDS loading buffer, Western blot.
Assay [2] has as its target Beclin1 (human (endogenous in NF1 MPNST cells)) (UniProt Q14457). The description is as above.
For assay [3], the target named is T1, pRB (human (endogenous in ST8814)) (UniProt P06400).
T1 sequence: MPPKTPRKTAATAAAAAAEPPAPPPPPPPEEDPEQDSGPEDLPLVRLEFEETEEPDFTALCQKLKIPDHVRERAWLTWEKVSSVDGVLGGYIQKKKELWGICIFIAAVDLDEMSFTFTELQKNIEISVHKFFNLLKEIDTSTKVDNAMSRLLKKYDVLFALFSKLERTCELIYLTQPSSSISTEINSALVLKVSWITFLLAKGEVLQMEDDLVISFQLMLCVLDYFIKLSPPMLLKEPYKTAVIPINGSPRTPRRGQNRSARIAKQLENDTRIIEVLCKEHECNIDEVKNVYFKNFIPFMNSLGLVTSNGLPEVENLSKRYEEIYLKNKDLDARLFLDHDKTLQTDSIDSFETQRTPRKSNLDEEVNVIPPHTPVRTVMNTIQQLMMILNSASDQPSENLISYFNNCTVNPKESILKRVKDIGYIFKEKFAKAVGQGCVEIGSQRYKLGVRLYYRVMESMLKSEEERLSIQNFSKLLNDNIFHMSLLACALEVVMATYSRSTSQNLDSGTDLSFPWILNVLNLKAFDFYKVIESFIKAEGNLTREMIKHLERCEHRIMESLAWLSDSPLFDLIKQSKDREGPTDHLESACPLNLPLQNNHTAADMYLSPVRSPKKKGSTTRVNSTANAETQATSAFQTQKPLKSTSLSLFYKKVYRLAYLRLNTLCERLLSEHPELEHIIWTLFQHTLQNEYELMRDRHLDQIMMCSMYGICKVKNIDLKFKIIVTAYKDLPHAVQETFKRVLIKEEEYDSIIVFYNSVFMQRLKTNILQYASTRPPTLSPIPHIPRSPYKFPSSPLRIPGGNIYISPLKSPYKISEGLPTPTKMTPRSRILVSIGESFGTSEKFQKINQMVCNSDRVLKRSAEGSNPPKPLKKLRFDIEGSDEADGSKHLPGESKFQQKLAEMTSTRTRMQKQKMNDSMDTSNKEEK
Description: co-IP; pRB immunoprecipitated from lysates of ST8814 cells with HMGA2 knockdown or overexpression; Western blot for HDAC1 and E2F1. For orientation: A western blot detects proteins with antibodies after separation by electrophoresis.

These are yes or no findings as the source states them, for the method shown. Binding seen in cells or lysates may run through a third protein. Some results given as binding are weak or reduced against the parent protein; the word gives no strength.

Beclin1 (from UniProt Q14457 1-450): the binding result in assay [1] is given as “binds”.

“Musashi-2 (MSI2) (from UniProt Q96DH6 1-328)”: the binding entry in assay [2] is “binds”. With HDAC1 (from UniProt Q13547 1-482), in assay [3], the binding entry is listed as “binds”.
